PubChem BioAssay AID686938, Drosophila RNAi Screening Center – 2013

- Purpose: 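Knock-downs reducing store-operated calcium influx in Drosophila cells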 (primary screen)
- Cells: Drosophila S2R+ cells
- Knock-down reagent: long dsRNA against Drosophila genes, about 0.25 µg dsRNA per well, roughly 10,000 cells
- Duration: 5 days of knock-down before the calcium assay
- Treatment: thapsigargin (SERCA pump blocker) to empty calcium stores; entry signal taken 4 min after adding it
- Measured: 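Duplicate raw fluo-4 intensities per well from a plate reader, at rest and four minutes after thapsigargin emptied calcium stores; entry-to-rest ratio filled for only some wells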
- Scale: calcium entry signal: higher = stronger calcium signal after store depletion; entry to resting ratio: higher = more calcium entry relative to resting level; resting calcium signal: higher = higher resting calcium signal
- Units: calcium entry signal in fluorescence units; resting calcium signal in fluorescence units
- Rule for the call: 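Hit if the duplicate-averaged plate z-score for entry over resting signal is under −3; wells with weak total dye signal (Fmax z < −2) or more than 5 off-targets removed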
- Calls: active = strongly reduced calcium entry; inactive = no strong reduction
The screen tested about 23,000 reagents; below is an unselected part of those with a known target gene and a result. In the full data, 75 (0.33%) were called active. 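Raw plate signals without normalisation; calls rest on plate z-scores that were not deposited; ratio present for only 364 wells.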 Entries without a mark were called inactive. Reagents against one gene are numbered here. No sequences are given here. Not stated in the record: the dose of the treatment.

For Nlp, the entry reads calcium entry signal, replicate 1 = 4.42e7; calcium entry signal, replicate 2 = 5.06e7; resting calcium signal, replicate 1 = 2.10e7; resting calcium signal, replicate 2 = 2.35e7. After knock-down of Odc2, the record shows calcium entry signal, replicate 1 = 4.06e7; calcium entry signal, replicate 2 = 4.12e7; resting calcium signal, replicate 1 = 1.98e7; resting calcium signal, replicate 2 = 1.79e7. Silencing of CDK2AP1 gave: calcium entry signal, replicate 1 = 2.98e7; calcium entry signal, replicate 2 = 3.66e7; resting calcium signal, replicate 1 = 1.46e7; resting calcium signal, replicate 2 = 1.71e7. Uba5 scored calcium entry signal, replicate 1 = 3.47e7; calcium entry signal, replicate 2 = 5.48e7; resting calcium signal, replicate 1 = 1.69e7; resting calcium signal, replicate 2 = 2.53e7. With knock-down of CG31922, the record shows calcium entry signal, replicate 1 = 3.33e7; calcium entry signal, replicate 2 = 3.11e7; resting calcium signal, replicate 1 = 1.99e7; resting calcium signal, replicate 2 = 1.46e7. Against Obp46a, the entry reads calcium entry signal, replicate 1 = 5.15e7; calcium entry signal, replicate 2 = 4.85e7; resting calcium signal, replicate 1 = 2.28e7; resting calcium signal, replicate 2 = 2.18e7.

Against RpL10Ab, the entry reads calcium entry signal, replicate 1 = 1.28e7; calcium entry signal, replicate 2 = 1.07e7; resting calcium signal, replicate 1 = 9.61e6; resting calcium signal, replicate 2 = 8.34e6.

A stretch of the results above, as a working copy:
Odc2: calcium entry signal, replicate 1 = 4.06e7; calcium entry signal, replicate 2 = 4.12e7; resting calcium signal, replicate 1 = 1.98e7; resting calcium signal, replicate 2 = 1.79e7
CDK2AP1: calcium entry signal, replicate 1 = 2.98e7; calcium entry signal, replicate 2 = 3.66e7; resting calcium signal, replicate 1 = 1.46e7; resting calcium signal, replicate 2 = 1.71e7
Uba5: calcium entry signal, replicate 1 = 3.47e7; calcium entry signal, replicate 2 = 5.48e7; resting calcium signal, replicate 1 = 1.69e7; resting calcium signal, replicate 2 = 2.53e7

Additional records follow:
With knock-down of CG18368, the record shows calcium entry signal, replicate 1 = 3.35e7; calcium entry signal, replicate 2 = 4.14e7; resting calcium signal, replicate 1 = 1.80e7; resting calcium signal, replicate 2 = 2.01e7. Knock-down of kmr #1 came out at: calcium entry signal, replicate 1 = 3.26e7; calcium entry signal, replicate 2 = 3.55e7; resting calcium signal, replicate 1 = 1.80e7; resting calcium signal, replicate 2 = 1.74e7. After knock-down of kmr #2, the record shows calcium entry signal, replicate 1 = 3.43e7; calcium entry signal, replicate 2 = 6.03e7; resting calcium signal, replicate 1 = 1.86e7; resting calcium signal, replicate 2 = 7.45e7. kmr #3 scored calcium entry signal, replicate 1 = 4.77e7; calcium entry signal, replicate 2 = 6.25e7; resting calcium signal, replicate 1 = 2.20e7; resting calcium signal, replicate 2 = 6.58e7. Knock-down of kmr #4 came out at: calcium entry signal, replicate 1 = 2.09e7; calcium entry signal, replicate 2 = 2.39e7; resting calcium signal, replicate 1 = 1.02e7; resting calcium signal, replicate 2 = 1.24e7. Silencing of bin gave: calcium entry signal, replicate 1 = 3.78e7; calcium entry signal, replicate 2 = 4.74e7; resting calcium signal, replicate 1 = 1.82e7; resting calcium signal, replicate 2 = 2.26e7.

Depletion of CG30431 #1 came out at: calcium entry signal, replicate 1 = 3.80e7; resting calcium signal, replicate 1 = 1.87e7. CG30431 #2 showed calcium entry signal, replicate 1 = 4.48e7; calcium entry signal, replicate 2 = 4.51e7; resting calcium signal, replicate 1 = 2.12e7; resting calcium signal, replicate 2 = 2.24e7. pgc showed calcium entry signal, replicate 1 = 4.28e7; calcium entry signal, replicate 2 = 5.45e7; resting calcium signal, replicate 1 = 1.99e7; resting calcium signal, replicate 2 = 2.29e7. Knock-down of Hayan #1 gave: calcium entry signal, replicate 1 = 4.61e7; calcium entry signal, replicate 2 = 4.14e7; resting calcium signal, replicate 1 = 2.20e7; resting calcium signal, replicate 2 = 1.79e7. After knock-down of Hayan #2, the screen gave calcium entry signal, replicate 1 = 4.07e7; calcium entry signal, replicate 2 = 7.03e7; resting calcium signal, replicate 1 = 1.91e7; resting calcium signal, replicate 2 = 3.03e7. Silencing of rha gave: calcium entry signal, replicate 1 = 2.78e7; calcium entry signal, replicate 2 = 3.00e7; resting calcium signal, replicate 1 = 1.25e7; resting calcium signal, replicate 2 = 1.45e7.

Lcp1Psi scored calcium entry signal, replicate 1 = 2.64e7; calcium entry signal, replicate 2 = 4.29e7; resting calcium signal, replicate 1 = 1.47e7; resting calcium signal, replicate 2 = 4.07e7. CG5254 scored calcium entry signal, replicate 1 = 4.69e7; calcium entry signal, replicate 2 = 4.73e7; entry to resting ratio 2; resting calcium signal, replicate 1 = 2.30e7; resting calcium signal, replicate 2 = 1.93e7.
